Some of the results follow. The main result of the screen is listed elsewhere. These columns were measured beside it and carry no call. Most of these compounds were active or inconclusive in the main read-out, so they are no random draw. Words in brackets tell the shape of the fitted curve; partial curves, single points and poor fits give uncertain potencies.
Test: IkB Signaling
Conditions: ABC-DLBCL IkBa-CBG/CBR dual luciferase ratio (green luciferase fused to IkBa over red control in OCI-Ly3 lymphoma cells), 4 h; measured here: control luc red channel unless noted
Outline: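 In this assay, an IκBα–CBG68 fusion accumulates when IKK-driven degradation is blocked; native CBR normalizes for cell number. OCI-Ly3 cells were treated 4 h with compound and doxycycline, then green and red light read after Chroma-Glo addition.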

Compound	AC50
O=C(CSc1nnc(-c2ccccc2)o1)N1CCCc2ccccc21	25.1 µM [falling, single point]
O=C(CCc1ccc(S(=O)(=O)N2CCOCC2)cc1)OCc1nc2ccccc2s1	7.94 µM [falling, full curve]
Cc1ccc(C)c(N2CCN(C(=O)Cn3nc(Cc4cccnc4)c4ccccc4c3=O)CC2)c1	20 µM [falling, single point]
CCOC(=O)N1CCc2c(sc3c2c(=O)n(-c2ccc(Cl)cc2)c(=O)n3CC(=O)Nc2ccccc2)C1	12.6 µM [falling, partial curve]
CCC(=O)Oc1cccc(C(=O)Nc2ccc(-c3nnc(-c4ccco4)o3)cc2)c1	7.94 µM [falling, full curve, poor fit]
COc1ccccc1-n1c(CNC(=O)c2ccccc2)nnc1SCC(=O)Nc1nnc(C)s1	3.98 µM [falling, full curve]
O=C(c1ccccc1)c1ccc2nc(Nc3ccccc3Cl)c3nncn3c2c1	20 µM [rising, partial curve]
CCOC(=O)c1c(C)oc2nc(C)nc(NCc3cccc(OC)c3)c12	39.8 µM [falling, single point]
CCOC(=O)c1cc(OC(=O)c2ccc(OC)c(OC)c2)n(-c2ccccc2)n1	39.8 µM [falling, single point]
COC(=O)c1[nH]c2cc(OC)ccc2c1NC(=O)CCN1CCN(c2cccc(C)c2C)CC1	15.8 µM [falling, partial curve]
CCn1c(=O)cc(SCC(=O)N2CCN(c3cc(C)ccc3C)CC2)c2ccccc21	15.8 µM [falling, partial curve]
Cc1nc2cccnc2n1-c1cccc(C(=O)NCCc2ccc(Cl)cc2)c1	25.1 µM [falling, partial curve]
O=C(Cc1cccs1)NCCn1ccc2ccccc21	398 nM [falling, full curve] [measured here: IkB-luc green channel]
O=C(CN1CCOc2ccccc21)N1CCC(Cc2ccccc2)CC1	15.8 µM [falling, partial curve]
CCC(=O)N1CCCc2cc(S(=O)(=O)Nc3ccc(C)c(C)c3)ccc21	25.1 µM [falling, partial curve, poor fit]
O=C(Nc1ccc2nc(SCC(=O)N3CCCc4ccccc43)sc2c1)c1ccc(F)cc1	7.94 µM [falling, partial curve]
CCCCN(CC)C(=O)Cn1c(=O)n(-c2ccc(OCC)cc2)c(=O)c2c3c(sc21)CCCC3	25.1 µM [falling, partial curve]
Cc1c(C(=O)Nc2ccc(Br)cc2F)sc2ncnc(N(C)C3CCCCC3)c12	39.8 µM [falling, single point]
CC(C)(C)c1ccc(NC(=O)CSc2nnc3scc(-c4ccccc4)n23)cc1	10 µM [falling, partial curve]
CCOC(=O)c1cnc2c(OC)cccc2c1Nc1cccc(O)c1	31.6 µM [falling, partial curve]
COc1ccc(C(=O)Cn2nnc(-c3ccccc3NC(=O)C3CC3)n2)cc1	31.6 µM [falling, single point]

Compound	AC50
Cc1cc(C)c2c(C)c(C(=O)N3CCC(c4nc5ccccc5s4)CC3)oc2c1	10 µM [falling, partial curve]
Cc1cc(-c2nnc3n2N=C(c2ccc(-c4ccccc4)cc2)CS3)n[nH]1	20 µM [falling, partial curve]
COCCCNC(=O)c1cc(-c2cccnc2)nc2ccc(S(=O)(=O)N3CCC(C)CC3)cc12	1 µM [rising, full curve, poor fit]
CN1C(=O)C2(c3ccccc31)N(c1cccc(F)c1)C(=O)CS2(=O)=O (stereo unspecified)	39.8 µM [falling, single point]
Clc1ccccc1CNc1nc2ccccc2c2nc(-c3cccnc3)nn12	7.94 µM [rising, single point]
COc1ccc(Cl)cc1NC(=O)c1c(NCc2sccc2C)sc2c1CCCC2	39.8 µM [rising, single point] [measured here: IkB-luc green channel]
COc1ccc(N2C(=O)CC(Cc3ccccc3)C2=O)cc1 (stereo unspecified)	25.1 µM [falling, partial curve]
COc1ccc(OC)c(CNS(=O)(=O)c2c(C(=O)N3CCCCCC3)c(C)n(C)c2C)c1	15.8 µM [falling, partial curve, poor fit]
O=S(=O)(c1ccc(Br)cc1)c1nc(-c2cccs2)oc1SCc1ccccc1F	0.0398 µM [falling, full curve, poor fit]
CCc1ccc(N(CC)C(=O)Cn2c(=O)oc3ccccc32)cc1	0.316 µM [falling, partial curve]
COc1cccc2cc(C(=O)NCCc3c(C)[nH]c4ccc(Br)cc34)c(=O)oc12	7.94 µM [falling, full curve]
CCC(C)OC(=O)C1=C(C)NC(=O)CC1c1ccccc1OC (stereo unspecified)	7.94 µM [falling, partial curve]
CCOC(=O)c1cc2c(=O)n3ccccc3nc2n(CC(C)C)c1=NC(=O)c1cc2ccccc2o1	25.1 µM [falling, partial curve, poor fit]
O=C(CN1C(=O)CC(c2ccccc2)Sc2ccccc21)Nc1cccc(Cl)c1 (stereo unspecified)	0.126 µM [falling, full curve]
CCN(C(=O)Cn1c(=O)oc2cc(Cl)ccc21)c1cccc(C(F)(F)F)c1	20 µM [falling, partial curve, poor fit]
Cc1ccc(CCNC(=O)C2CCN(c3nnc(-n4cccc4CNc4ccc(C)cc4)s3)CC2)cc1	0.126 µM [falling, full curve]
COc1ccc(/C=C/C(=O)Nc2nc3n(n2)C(c2ccccc2)C=C(c2ccccc2)N3)cc1 (stereo unspecified)	7.94 µM [falling, partial curve]
CN(Cc1ccccc1)C(=O)CSc1nc2ccccc2n1Cc1ccccc1F	15.8 µM [falling, partial curve]
CCc1c(C#N)c(SCc2c(C)noc2C)nc2c1C(=O)CC(C)(C)C2	25.1 µM [falling, partial curve]
Cc1sc2c(c1C)c(=O)n(-c1cccc(C(F)(F)F)c1)c(=O)n2Cc1ccc(F)cc1	0.0794 µM [rising, full curve, poor fit]
COc1ccccc1Cc1nc2ccccc2nc1SCC(=O)Nc1cccc(Cl)c1C	6.31 µM [falling, partial curve]

In the list so far, these contain a CF3 group.
Compound	AC50
CCN(C(=O)Cn1c(=O)oc2cc(Cl)ccc21)c1cccc(C(F)(F)F)c1	20 µM [falling, partial curve, poor fit]
Cc1sc2c(c1C)c(=O)n(-c1cccc(C(F)(F)F)c1)c(=O)n2Cc1ccc(F)cc1	0.0794 µM [rising, full curve, poor fit]

2 entries picked at random from those above, as already listed:
Compound	AC50
COc1ccc(C(=O)Cn2nnc(-c3ccccc3NC(=O)C3CC3)n2)cc1	31.6 µM [falling, single point]
O=C(CN1CCOc2ccccc21)N1CCC(Cc2ccccc2)CC1	15.8 µM [falling, partial curve]

The results go on:

Compound	AC50
COc1ccccc1N1CCN(C(=O)CCNS(=O)(=O)c2ccc3c(c2)CCN3C(=O)C2CC2)CC1	0.1 µM [falling, partial curve, poor fit]
COc1ccc(Cl)cc1NC(=O)CSC1=Nc2ccccc2C2=NC(CC(=O)NCc3ccc4c(c3)OCO4)C(=O)N12 (stereo unspecified)	20 µM [falling, partial curve]
O=S(=O)(CCOc1ccccc1)c1nc2ccccc2[nH]1	5.01 µM [falling, partial curve]
Cc1c(O)c(Br)c(C)c(O)c1Br (tested in a mixture with another compound)	3.98 µM [falling, single point]
COc1ccccc1C(=O)Nc1ccc2c(c1)nc(CN1CCCCC1)n2C	15.8 µM [falling, partial curve]
CCn1c(=O)n(CC)c2cc(N3CCCCC3)c(NC(=O)Nc3ccccc3C(F)(F)F)cc21	39.8 µM [falling, single point]
Cc1cc(C)n2nc(SCC(=O)Nc3cccc(C(F)(F)F)c3)nc2n1	25.1 µM [falling, partial curve]
Cc1ccc(S(=O)(=O)Nc2nc3ccccc3nc2NCc2ccco2)cc1	0.0631 µM [falling, full curve]
COc1ccc(C(CC(=O)NCc2ccccc2)N2Cc3ccccc3C2=O)cc1 (stereo unspecified)	20 µM [falling, single point]
CCC(Oc1ccc(F)cc1)C(=O)Nc1nc(-c2ccc(F)cc2)ns1 (stereo unspecified)	6.31 µM [falling, single point]
CCOC(=O)c1ccc(NC(=O)CC2C(=O)N(c3cccc(OC)c3)C(=O)N2Cc2ccc(OC)cc2)cc1 (stereo unspecified)	15.8 µM [falling, partial curve, poor fit]
COC(=O)CS(=O)(=O)c1nc2ccccc2nc1N1CCCCC1	39.8 µM [falling, single point]
CC(C)CCNC(=O)Nc1ccc2c(c1)N(C)C(=O)c1ccccc1S2	12.6 µM [falling, single point]
Cc1n[nH]c(C)c1S(=O)(=O)N(CC(=O)NC(C)c1ccccc1)c1ccc(C(C)C)cc1 (stereo unspecified)	15.8 µM [falling, partial curve]
CS(=O)(=O)N1CCc2cc(C(=O)NCCc3ccccc3)ccc21	3.98 µM [rising, partial curve]
O=C(Nc1ccc2oc(Cc3ccc(Cl)cc3)nc2c1)c1cccnc1	12.6 µM [falling, partial curve]
CC1=Nc2cc(C(=O)NC3CCCC3)ccc2Sc2ccc(C)cc21	1 µM [rising, full curve] [measured here: IkB-luc green channel]
Cc1nn(-c2nc(-c3ccc(F)cc3)cc(C(F)(F)F)n2)c(C)c1Br	12.6 µM [falling, partial curve]
CC1CCC(NC(=O)CC2Oc3ccccc3NC2=O)CC1 (stereo unspecified)	10 µM [falling, partial curve]
